Patent US9314540B2, “Compounds for use in imaging, diagnosing and/or treatment of diseases of the central nervous system” (PIRAMAL IMAGING SA, priority 2010, dated 2016)

System: MAO-B
Test: PET time activity curves in cynomolgus monkey brain regions
Format: in vivo
Conditions: brain regions investigated, steady state phase

[2H]C([2H])(C#C)N(C)[C@H](CF)Cc1ccccc1 [[^18F] D2 Deprenyl, N-[(2S)-1-[^18F]fluoro-3-phenylpropan-2-yl]-N-methyl(1,1-^2H2)— prop-2-yn-1-amine]
decrease in signal intensity from [18F] Deprenyl towards [18F] D2 Deprenyl: 6-8 times

Some results come without the dose or concentration used.
